Laboratory results reported in patent US20240358735A1, “THERAPEUTIC COMPOSITIONS AND RELATED METHODS” (BOYCE THOMPSON INSTITUTE FOR PLANT RESEARCH, INC., priority 2021, published 2024).

System: Cel-cest-1.2 mutants
Assay: Comparative metabolomics (HPLC-HRMS) of Cel-cest-1.2 mutants versus wildtype C. elegans (N2)
Settings: for Cel-cest-1.2 fold over WT (N2), average of 4 repeats: abundance of the metabolite in Cel-cest-1.2 mutants compared to C. elegans wildtype (N2)

Compound | production in the Cel-cest-1.2 mutant (in words) (relative to wildtype C. elegans) | Cel-cest-1.2 fold over WT (N2), average of 4 repeats
Nc1ccccc1C(=O)O[C@H]1O[C@H](CO)[C@@H](O)[C@H](OP(=O)(O)O)[C@H]1O [angl #2] | not abolished | –
Nc1ccccc1C(=O)O[C@@H]1O[C@H](COC(=O)c2cccnc2)[C@@H](O)[C@H](OP(=O)(O)O)[C@H]1O [angl#10] | – | 0.0007813
CCC(=O)O[C@H]1[C@H](OC(=O)c2ccccc2N)O[C@H](CO)[C@@H](O)[C@@H]1OP(=O)(O)O [angl#12] | – | 0.004249
CCCC(=O)OC[C@H]1O[C@@H](OC(=O)c2ccccc2N)[C@H](OC(=O)Cc2ccccc2)[C@@H](OP(=O)(O)O)[C@@H]1O [angl#22] | – | 0.004657
Nc1ccccc1C(=O)O[C@@H]1O[C@H](COC(=O)c2cccnc2)[C@@H](O)[C@H](OP(=O)(O)O)[C@H]1OC(=O)c1ccc[nH]1 [angl#24] | – | 0.00003421
C/C=C(\C)C(=O)OC[C@H]1O[C@@H](OC(=O)c2ccccc2N)[C@H](OC(=O)/C(C)=C/C)[C@@H](OP(=O)(O)O)[C@@H]1O [angl#26] | – | 0.01182
Nc1ccccc1C(=O)O[C@@H]1O[C@H](COC(=O)c2cccnc2)[C@@H](O)[C@H](OP(=O)(O)O)[C@H]1OC(=O)c1ccccc1 [angl#27] | – | 0.0002314
Nc1ccccc1C(=O)O[C@@H]1O[C@H](COC(=O)c2ccccc2)[C@@H](O)[C@H](OP(=O)(O)O)[C@H]1OC(=O)c1cccnc1 [angl#28] | – | 0.0009419
Nc1ccccc1C(=O)O[C@@H]1O[C@H](COC(=O)c2ccccc2)[C@@H](O)[C@H](OP(=O)(O)O)[C@H]1OC(=O)c1cccnc1 [angl#29] | – | 0.001518
Nc1ccccc1C(=O)O[C@@H]1O[C@H](COC(=O)c2cccnc2)[C@@H](O)[C@H](OP(=O)(O)O)[C@H]1OC(=O)c1cccnc1 [angl#30] | – | 0.001616
Nc1ccccc1C(=O)O[C@@H]1O[C@H](COC(=O)c2ccccc2)[C@@H](O)[C@H](OP(=O)(O)O)[C@H]1OC(=O)c1ccccc1N [angl#32] | – | 0.0004297
C/C=C(\C)C(O)OC1C(CC(=O)c2ccccc2N)OC(COC(=O)C(N)Cc2ccccc2)C(O)C1OP(=O)(O)O (centres unmarked) [angl#34] | – | 0.0007289
Nc1ccccc1C(=O)OC[C@H]1O[C@@H](OC(=O)c2ccccc2N)[C@H](OC(=O)c2ccccc2N)[C@@H](OP(=O)(O)O)[C@@H]1O [angl#36] | – | 0.0003258
Nc1ccccc1C(=O)O[C@@H]1O[C@H](COC(=O)C(N)Cc2ccccc2)[C@@H](O)[C@H](OP(=O)(O)O)[C@H]1OC(=O)c1ccccc1 (some centres unmarked) [angl#38] | – | 0.000919
CCCCCCCCCCCC(=O)OC[C@H]1O[C@@H](OC(=O)c2ccccc2N)[C@H](OC(=O)c2ccccc2N)[C@@H](OP(=O)(O)O)[C@@H]1O [angl#40] | – | 0.004743
CCCCCCCCCCCC(=O)O[C@H]1[C@H](OC(=O)c2ccccc2N)O[C@H](COC(=O)c2ccccc2N)[C@@H](O)[C@@H]1OP(=O)(O)O [angl#41] | – | 0.002887
C/C=C(\C)C(=O)OC[C@H]1O[C@@H](CC(=O)c2ccccc2N)[C@H](OC(=O)c2ccccc2)[C@@H](O)[C@@H]1O [angl#42] | – | 0.00007037
CC(C)CC(=O)OC1C(OC(=O)c2ccccc2N)OC(CO)C(O)C1OP(=O)(O)O (centres unmarked) [angl#46] | – | 0.01675
Nc1ccccc1C(=O)C[C@@H]1O[C@H](COC(=O)c2ccc(O)cc2)[C@@H](O)[C@H](OP(=O)(O)O)[C@H]1OC(=O)c1ccc(O)cc1 [angl#47] | – | 0.003957
Nc1ccccc1C(=O)OC[C@H]1O[C@@H](CC(=O)c2ccc(O)cc2)[C@H](OC(=O)c2ccc(O)cc2)[C@@H](OP(=O)(O)O)[C@@H]1O [angl#48] | – | 0.01184
